Data published in the M2OR odorant receptor database.
Only a part is listed here, and it is no random draw. Calls are pooled over several reports, among them a noisy single-well screen. Some of the results follow.

How the values were obtained:
Conditions in all cases: stereoisomer not certain
OR8S1 = tested on: T1, OR8S1
T1 sequence (whole entry): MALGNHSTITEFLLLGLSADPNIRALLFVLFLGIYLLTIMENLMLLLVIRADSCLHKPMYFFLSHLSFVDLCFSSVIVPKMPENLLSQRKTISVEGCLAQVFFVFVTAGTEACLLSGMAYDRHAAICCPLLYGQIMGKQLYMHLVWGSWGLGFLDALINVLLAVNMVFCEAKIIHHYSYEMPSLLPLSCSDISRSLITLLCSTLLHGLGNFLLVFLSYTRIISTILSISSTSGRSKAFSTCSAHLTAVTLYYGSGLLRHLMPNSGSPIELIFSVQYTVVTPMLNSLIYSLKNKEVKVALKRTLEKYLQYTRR
In short: (§1)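 Each receptor–molecule pair is labelled responsive or non-responsive (inactive) according to whether the original authors judged the measured signal statistically different from baseline. The data were taken from the main text and supplementary material of published papers and checked for typos and inconsistencies. Assay methods differed by source, with transient luciferase assays in mammalian cell lines being common.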

OR8U1 = tested on: T2, OR8U1
T2 sequence (whole entry): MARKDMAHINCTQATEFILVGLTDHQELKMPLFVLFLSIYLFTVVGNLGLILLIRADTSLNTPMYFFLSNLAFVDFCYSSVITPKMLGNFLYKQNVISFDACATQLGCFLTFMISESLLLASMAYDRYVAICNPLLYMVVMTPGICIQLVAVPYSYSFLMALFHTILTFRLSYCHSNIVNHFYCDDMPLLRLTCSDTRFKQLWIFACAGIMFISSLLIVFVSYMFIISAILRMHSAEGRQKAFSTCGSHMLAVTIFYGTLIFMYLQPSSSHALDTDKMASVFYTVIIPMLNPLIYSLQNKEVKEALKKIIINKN
In short: as §1

OR8U8 = tested on: T3, OR8U8
T3 sequence (whole entry): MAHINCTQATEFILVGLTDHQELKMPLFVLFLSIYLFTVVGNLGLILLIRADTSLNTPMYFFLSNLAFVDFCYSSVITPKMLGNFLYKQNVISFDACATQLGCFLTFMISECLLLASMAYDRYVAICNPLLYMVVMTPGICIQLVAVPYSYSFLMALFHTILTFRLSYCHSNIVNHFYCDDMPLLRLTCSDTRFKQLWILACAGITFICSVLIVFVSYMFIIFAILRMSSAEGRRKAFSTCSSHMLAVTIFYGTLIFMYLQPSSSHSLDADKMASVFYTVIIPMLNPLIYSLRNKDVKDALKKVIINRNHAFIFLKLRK
In short: as §1

OR8U9 = tested on: T4, OR8U9
T4 sequence (whole entry): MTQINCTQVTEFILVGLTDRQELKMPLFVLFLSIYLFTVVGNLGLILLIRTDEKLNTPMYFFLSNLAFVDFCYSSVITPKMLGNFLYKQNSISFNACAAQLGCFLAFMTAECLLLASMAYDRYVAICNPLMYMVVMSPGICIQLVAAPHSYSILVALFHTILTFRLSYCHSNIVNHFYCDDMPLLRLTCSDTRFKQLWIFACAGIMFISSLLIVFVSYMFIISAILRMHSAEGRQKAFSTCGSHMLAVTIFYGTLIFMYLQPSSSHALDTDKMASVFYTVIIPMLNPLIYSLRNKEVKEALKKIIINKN
In short: as §1

OR9A2 = tested on: T5, OR9A2
T5 sequence (whole entry): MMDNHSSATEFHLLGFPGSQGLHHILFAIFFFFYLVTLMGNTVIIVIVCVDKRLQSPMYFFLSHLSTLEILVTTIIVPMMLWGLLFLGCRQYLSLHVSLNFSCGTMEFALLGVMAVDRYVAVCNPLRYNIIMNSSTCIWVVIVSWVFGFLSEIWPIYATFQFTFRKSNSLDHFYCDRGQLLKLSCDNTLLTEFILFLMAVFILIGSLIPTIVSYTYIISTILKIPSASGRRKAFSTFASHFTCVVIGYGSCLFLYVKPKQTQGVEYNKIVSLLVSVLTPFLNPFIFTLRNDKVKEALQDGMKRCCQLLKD
In short: as §1

OR9A4 (Homo sapiens) = biological target: T6, OR9A4 (Homo sapiens) (UniProt Q8NGU2)
T6 sequence (whole entry): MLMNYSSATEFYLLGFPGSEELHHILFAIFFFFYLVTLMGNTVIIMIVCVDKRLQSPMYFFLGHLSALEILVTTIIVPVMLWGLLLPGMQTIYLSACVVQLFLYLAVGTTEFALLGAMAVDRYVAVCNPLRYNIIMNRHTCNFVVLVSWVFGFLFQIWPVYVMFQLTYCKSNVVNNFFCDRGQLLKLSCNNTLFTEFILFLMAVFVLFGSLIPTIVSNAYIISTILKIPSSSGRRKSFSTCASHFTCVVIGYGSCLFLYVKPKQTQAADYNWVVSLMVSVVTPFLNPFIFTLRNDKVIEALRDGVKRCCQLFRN
In short: as §1

OR9G4 = tested on: T7, OR9G4
T7 sequence (whole entry): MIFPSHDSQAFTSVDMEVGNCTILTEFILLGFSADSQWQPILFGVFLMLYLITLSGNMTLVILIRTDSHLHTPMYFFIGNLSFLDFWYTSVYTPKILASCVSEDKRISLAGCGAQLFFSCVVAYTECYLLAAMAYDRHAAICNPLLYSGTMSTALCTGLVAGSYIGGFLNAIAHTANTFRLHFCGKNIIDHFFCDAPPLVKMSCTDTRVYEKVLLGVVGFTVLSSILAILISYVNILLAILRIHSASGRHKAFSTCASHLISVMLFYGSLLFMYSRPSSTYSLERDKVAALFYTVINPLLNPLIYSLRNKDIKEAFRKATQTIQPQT
In short: as §1

OR9G9 [1] = tested on: T8, OR9G9
T8 sequence (whole entry): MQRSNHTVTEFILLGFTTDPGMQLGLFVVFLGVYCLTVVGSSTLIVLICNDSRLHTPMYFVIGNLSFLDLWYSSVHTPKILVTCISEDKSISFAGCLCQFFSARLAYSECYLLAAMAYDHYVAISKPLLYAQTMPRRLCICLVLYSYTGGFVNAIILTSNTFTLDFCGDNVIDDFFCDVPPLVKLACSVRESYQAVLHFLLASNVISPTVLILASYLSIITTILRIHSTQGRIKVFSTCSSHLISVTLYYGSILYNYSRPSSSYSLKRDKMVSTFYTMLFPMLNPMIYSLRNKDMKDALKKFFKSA
In short: as §1

OR9G9 [2] = tested on: T9, OR9G9; remark: listed apart in the source
T9 sequence (whole entry): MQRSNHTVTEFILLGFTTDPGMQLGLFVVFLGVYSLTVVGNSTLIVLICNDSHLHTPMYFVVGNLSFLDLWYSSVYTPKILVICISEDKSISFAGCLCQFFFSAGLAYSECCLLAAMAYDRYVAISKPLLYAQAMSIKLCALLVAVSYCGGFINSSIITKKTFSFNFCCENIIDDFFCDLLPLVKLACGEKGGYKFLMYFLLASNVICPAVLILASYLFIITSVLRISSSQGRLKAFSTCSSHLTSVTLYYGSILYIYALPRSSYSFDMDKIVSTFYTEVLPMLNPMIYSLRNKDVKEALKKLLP
In short: as §1

OR9I1 (Homo sapiens) = biological target: T10, OR9I1 (Homo sapiens) (UniProt Q8NGQ6)
T10 sequence (whole entry): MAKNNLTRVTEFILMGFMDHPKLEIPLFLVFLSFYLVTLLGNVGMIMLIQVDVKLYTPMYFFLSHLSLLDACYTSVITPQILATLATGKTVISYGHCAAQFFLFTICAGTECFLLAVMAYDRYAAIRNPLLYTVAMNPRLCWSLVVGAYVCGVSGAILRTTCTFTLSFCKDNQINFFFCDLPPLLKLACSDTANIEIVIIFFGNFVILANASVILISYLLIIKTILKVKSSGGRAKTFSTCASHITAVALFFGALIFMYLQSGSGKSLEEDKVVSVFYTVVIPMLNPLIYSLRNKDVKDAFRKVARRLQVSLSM
In short: as §1

Measured: odorant receptor agonist call;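 also: active if original authors judged signal statistically different from baseline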

CS
inactive: all assays above

CCC(C)=O
inactive: all assays above

CCCCOC(C)=O
inactive: all assays above
